Experimental data published in publication PMC2749441.

Amino acid sequences for entries named in this document (tags omitted). Residues count along the entry.
UniProt Q9QUG3, residues 26-155: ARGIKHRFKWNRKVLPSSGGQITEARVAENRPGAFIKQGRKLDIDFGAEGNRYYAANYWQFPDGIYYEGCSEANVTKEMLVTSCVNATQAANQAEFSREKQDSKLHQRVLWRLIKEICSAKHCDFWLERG
UniProt P06837: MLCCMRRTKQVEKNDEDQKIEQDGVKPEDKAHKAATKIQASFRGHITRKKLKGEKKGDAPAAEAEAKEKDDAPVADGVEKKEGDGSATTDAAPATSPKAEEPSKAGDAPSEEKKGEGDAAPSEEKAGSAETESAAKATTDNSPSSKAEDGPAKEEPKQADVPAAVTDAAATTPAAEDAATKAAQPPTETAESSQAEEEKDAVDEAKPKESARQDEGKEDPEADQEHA
UniProt P20029, residues 20-655: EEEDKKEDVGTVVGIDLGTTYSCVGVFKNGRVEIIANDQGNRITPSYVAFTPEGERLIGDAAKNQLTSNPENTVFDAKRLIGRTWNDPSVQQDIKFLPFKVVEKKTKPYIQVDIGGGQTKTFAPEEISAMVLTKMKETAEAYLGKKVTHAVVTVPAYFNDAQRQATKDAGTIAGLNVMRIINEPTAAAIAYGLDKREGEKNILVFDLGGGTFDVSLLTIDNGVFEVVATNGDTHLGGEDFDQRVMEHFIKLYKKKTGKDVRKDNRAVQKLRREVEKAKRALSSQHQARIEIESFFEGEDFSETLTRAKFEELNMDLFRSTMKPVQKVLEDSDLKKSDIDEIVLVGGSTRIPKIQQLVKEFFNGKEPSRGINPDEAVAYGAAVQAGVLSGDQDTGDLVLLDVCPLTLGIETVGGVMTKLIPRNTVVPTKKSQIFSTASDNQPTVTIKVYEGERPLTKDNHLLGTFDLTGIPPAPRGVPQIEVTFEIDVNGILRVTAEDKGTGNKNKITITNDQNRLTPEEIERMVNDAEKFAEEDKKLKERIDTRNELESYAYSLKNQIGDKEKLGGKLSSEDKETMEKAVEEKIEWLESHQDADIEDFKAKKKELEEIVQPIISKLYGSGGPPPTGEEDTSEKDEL
UniProt P09103, residues 20-509: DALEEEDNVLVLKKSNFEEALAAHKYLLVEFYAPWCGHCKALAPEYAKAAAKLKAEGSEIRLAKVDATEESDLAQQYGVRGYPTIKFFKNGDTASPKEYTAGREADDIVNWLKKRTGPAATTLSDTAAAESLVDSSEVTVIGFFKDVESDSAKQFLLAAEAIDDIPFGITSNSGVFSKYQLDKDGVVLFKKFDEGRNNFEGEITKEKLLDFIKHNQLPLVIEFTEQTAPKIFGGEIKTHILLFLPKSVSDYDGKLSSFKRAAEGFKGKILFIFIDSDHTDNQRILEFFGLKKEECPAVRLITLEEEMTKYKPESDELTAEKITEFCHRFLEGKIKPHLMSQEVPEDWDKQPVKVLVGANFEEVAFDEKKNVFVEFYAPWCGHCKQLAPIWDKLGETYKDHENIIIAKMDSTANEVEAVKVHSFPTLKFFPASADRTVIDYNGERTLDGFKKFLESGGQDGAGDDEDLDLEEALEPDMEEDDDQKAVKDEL
UniProt Q9R0Q3, residues 21-201: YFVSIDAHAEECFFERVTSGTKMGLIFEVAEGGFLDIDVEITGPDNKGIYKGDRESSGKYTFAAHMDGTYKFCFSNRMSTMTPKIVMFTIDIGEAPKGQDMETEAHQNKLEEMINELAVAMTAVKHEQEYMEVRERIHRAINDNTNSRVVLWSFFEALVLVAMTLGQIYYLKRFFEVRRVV
UniProt P97370: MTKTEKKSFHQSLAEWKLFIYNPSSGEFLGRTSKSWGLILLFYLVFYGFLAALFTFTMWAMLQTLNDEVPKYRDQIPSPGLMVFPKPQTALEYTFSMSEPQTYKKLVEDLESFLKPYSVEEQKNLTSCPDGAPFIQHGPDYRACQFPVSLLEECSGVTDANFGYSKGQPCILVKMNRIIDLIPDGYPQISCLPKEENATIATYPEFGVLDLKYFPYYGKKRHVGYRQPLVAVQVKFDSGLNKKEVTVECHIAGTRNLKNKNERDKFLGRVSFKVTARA
UniProt P14211, residues 18-416: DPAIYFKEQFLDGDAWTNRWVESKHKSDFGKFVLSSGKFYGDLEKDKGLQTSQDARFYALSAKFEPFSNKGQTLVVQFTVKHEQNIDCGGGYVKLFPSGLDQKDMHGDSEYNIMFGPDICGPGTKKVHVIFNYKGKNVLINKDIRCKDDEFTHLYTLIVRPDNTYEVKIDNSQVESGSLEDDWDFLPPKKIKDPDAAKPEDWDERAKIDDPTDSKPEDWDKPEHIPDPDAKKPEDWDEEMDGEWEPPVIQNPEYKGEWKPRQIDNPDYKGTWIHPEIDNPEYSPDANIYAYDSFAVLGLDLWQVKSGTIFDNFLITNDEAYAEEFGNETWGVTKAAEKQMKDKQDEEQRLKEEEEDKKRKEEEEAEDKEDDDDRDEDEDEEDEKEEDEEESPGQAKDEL
UniProt P24369, residues 34-216: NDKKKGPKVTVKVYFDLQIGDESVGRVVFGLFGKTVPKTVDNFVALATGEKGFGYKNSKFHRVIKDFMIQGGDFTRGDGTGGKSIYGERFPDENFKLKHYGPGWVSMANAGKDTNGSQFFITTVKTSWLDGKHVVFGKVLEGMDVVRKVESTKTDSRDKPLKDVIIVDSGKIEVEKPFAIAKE
UniProt P10852: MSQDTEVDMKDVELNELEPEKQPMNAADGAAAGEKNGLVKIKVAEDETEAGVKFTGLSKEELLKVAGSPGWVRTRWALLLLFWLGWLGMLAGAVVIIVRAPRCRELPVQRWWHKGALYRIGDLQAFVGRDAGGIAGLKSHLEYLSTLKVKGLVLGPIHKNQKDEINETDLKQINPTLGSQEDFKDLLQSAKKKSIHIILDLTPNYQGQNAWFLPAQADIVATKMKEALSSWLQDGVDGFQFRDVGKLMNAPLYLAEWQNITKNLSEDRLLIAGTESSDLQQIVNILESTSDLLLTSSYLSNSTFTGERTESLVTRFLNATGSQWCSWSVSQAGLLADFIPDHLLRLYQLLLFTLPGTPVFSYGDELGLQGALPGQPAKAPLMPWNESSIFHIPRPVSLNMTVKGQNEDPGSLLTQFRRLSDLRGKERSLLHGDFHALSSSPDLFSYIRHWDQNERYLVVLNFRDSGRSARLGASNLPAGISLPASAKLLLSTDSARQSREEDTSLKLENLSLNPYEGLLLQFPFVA
UniProt P13595, residues 20-1115: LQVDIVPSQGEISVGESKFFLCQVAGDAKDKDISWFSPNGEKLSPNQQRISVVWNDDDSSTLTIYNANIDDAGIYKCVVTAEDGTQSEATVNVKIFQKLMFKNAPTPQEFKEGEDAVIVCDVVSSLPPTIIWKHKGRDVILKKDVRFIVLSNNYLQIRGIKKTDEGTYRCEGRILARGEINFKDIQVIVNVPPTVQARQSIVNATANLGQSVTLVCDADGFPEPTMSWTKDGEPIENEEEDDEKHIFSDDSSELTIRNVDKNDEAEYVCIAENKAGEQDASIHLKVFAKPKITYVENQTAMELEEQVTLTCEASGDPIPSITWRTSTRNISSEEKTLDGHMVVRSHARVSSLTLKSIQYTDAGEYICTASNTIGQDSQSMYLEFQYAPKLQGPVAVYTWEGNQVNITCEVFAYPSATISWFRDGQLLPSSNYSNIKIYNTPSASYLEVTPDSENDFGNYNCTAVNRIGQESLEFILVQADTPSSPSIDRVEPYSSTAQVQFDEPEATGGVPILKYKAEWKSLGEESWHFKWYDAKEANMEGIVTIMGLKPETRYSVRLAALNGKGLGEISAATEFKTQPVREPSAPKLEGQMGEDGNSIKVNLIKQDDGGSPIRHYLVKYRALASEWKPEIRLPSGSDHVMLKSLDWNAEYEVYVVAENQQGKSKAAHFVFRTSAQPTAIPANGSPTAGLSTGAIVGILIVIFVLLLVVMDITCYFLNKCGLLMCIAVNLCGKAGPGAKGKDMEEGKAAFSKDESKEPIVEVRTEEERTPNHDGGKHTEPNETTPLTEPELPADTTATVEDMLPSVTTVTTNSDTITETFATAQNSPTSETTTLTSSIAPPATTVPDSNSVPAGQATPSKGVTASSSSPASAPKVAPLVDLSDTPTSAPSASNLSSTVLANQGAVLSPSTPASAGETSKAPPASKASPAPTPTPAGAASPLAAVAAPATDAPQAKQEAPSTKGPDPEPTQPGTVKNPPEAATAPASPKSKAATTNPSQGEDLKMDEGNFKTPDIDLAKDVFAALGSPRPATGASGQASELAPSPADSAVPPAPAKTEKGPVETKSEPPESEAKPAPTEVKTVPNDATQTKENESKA
UniProt P29391: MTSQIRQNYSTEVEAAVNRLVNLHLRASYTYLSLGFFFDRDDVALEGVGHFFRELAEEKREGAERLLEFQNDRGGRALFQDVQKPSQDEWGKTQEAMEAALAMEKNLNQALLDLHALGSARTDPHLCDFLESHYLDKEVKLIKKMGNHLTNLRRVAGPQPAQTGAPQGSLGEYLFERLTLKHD
UniProt P08113, residues 22-802: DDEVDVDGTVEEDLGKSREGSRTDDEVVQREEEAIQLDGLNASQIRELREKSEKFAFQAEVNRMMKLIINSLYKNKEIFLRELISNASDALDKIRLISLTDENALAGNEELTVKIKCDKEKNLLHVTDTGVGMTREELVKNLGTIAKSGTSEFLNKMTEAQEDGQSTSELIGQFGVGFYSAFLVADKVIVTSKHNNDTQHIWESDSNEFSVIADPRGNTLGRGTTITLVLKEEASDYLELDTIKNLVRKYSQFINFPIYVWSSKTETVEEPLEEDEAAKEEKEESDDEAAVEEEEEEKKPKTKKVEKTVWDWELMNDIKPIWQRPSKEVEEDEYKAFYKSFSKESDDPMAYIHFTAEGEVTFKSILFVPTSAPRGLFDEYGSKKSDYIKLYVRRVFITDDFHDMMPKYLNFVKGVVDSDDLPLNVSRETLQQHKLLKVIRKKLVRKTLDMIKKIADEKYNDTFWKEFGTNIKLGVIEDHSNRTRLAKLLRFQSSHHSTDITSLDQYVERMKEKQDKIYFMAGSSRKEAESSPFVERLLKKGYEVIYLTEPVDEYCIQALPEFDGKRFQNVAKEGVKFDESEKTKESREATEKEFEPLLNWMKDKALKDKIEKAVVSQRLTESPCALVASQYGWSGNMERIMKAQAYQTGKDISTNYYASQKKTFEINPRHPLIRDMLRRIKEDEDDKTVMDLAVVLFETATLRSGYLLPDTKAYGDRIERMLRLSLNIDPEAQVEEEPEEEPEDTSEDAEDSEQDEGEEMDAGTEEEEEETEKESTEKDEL
UniProt P16045: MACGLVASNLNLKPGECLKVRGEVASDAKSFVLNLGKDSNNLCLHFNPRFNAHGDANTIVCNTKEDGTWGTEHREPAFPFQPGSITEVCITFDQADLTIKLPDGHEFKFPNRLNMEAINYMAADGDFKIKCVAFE
UniProt P27773, residues 25-505: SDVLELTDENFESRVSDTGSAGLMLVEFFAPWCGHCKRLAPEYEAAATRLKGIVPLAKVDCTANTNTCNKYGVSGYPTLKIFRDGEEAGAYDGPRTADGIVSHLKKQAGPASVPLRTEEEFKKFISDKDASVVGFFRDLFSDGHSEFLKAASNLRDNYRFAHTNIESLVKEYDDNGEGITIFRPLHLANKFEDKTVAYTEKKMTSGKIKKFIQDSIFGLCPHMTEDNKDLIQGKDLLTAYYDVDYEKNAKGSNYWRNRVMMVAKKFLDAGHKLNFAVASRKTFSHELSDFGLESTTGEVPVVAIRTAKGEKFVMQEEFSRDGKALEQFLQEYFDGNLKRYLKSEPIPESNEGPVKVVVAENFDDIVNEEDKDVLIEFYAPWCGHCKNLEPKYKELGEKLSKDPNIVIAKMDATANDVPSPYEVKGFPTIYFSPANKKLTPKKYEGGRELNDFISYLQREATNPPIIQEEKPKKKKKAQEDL
UniProt P39688: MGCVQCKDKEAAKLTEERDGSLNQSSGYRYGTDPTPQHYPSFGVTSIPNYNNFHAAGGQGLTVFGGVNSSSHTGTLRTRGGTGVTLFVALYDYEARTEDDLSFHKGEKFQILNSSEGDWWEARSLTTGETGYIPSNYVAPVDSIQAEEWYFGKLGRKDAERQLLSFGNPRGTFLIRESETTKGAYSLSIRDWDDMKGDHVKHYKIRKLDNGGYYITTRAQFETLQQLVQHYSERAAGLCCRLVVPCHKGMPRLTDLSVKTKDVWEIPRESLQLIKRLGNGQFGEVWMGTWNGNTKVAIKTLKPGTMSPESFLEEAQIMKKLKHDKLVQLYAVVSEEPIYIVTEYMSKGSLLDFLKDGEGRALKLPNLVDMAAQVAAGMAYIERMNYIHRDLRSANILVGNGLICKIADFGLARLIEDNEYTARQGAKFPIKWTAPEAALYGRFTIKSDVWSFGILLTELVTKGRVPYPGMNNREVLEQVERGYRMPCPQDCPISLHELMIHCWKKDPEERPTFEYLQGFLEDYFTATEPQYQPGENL

target: FLAG-Dpl (mouse) (UniProt Q9QUG3); experiment: affinity purification with mass spectrom

| binding | Molecule |
| --- | --- |
| binds | growth associated protein 43 (neuromodulin) (from UniProt P06837 1-227) |
| binds | heat shock protein 5 (from UniProt P20029 20-655) |
| binds | protein disulfide-isomerase (prolyl 4-hydroxylase beta) (from UniProt P09103 20-509) |
| binds | transmembrane emp24 domain trafficking protein 2 (from UniProt Q9R0Q3 21-201) |
| binds | sodium/potassium transporting ATPase beta 3 polypeptide (from UniProt P97370 1-278) |
| binds | calreticulin (from UniProt P14211 18-416) |
| binds | neuropilin 1 (from UniProt P97333 22-923) |
| binds | peptidylprolyl isomerase B (from UniProt P24369 34-216) |
| binds | solute carrier family 3, member 2 (CD98) (from UniProt P10852 1-526) |
| binds | neural cell adhesion molecule 1 (NCAM) (from UniProt P13595 20-1115) |
| binds | ferritin light chain 1 (from UniProt P29391 1-183) |
| binds | heat shock protein 90, beta (Grp94), member 1 (endoplasmin) (from UniProt P08113 22-802) |
| binds | galectin-1 (lectin, galactose binding, soluble 1) (from UniProt P16045 1-135) |
| binds | integrin beta 1 (from UniProt P09055 21-798) |
| binds | protein disulfide isomerase associated 3 (from UniProt P27773 25-505) |
| binds | protein disulfide isomerase associated 4 (from UniProt P08003 21-638) |
| binds | guanine nucleotide binding protein, alpha inhibiting 2 (from UniProt P08752 1-355) |
| binds | fyn proto-oncogene (from UniProt P39688 1-537) |
| binds | integrin alpha 6 (protein, UniProt Q61739 24-1091) FNLDTREDNVIRKSGDPGSLFGFSLAMHWQLQPEDKRLLLVGAPRAEALPLQRANRTGGLYSCDITSRGPCTRIEFDNDADPMSESKEDQWMGVTVQSQGPGGKVVTCAHRYEKRQHVNTKQESRDIFGRCYVLSQNLRIEDDMDGGDWSFCDGRLRGHEKFGSCQQGVAATFTKDFHYIVFGAPGTYNWKGIVRVEQKNNTFFDMNIFEDGPYEVGGETDHDESLVPVPANSYLGFSLDSGKGIVSKDDITFVSGAPRANHSGAVVLLKRDMKSAHLLPEYIFDGEGLASSFGYDVAVVDLNADGWQDIVIGAPQYFDRDGEVGGAVYVYINQQGKWSNVKPIRLNGTKDSMFGISVKNIGDINQDGYPDIAVGAPYDDLGKVFIYHGSPTGIITKPTQVLEGTSPYFGYSIAGNMDLDRNSYPDLAVGSLSDSVTIFRSRPVINILKTITVTPNRIDLRQKSMCGSPSGICLKVKACFEYTAKPSGYNPPISILGILEAEKERRKSGLSSRVQFRNQGSEPKYTQELTLNRQKQRACMEETLWLQENIRDKLRPIPITASVEIQEPSSRRRVNSLPEVLPILNSNEAKTVQTDVHFLKEGCGDDNVCNSNLKLEYKFGTREGNQDKFSYLPIQKGIPELVLKDQKDIALEITVTNSPSDPRNPRKDGDDAHEAKLIATFPDTLTYSAYRELRAFPEKQLSCVANQNGSQADCELGNPFKRNSSVTFYLILSTTEVTFDTTDLDINLKLETTSNQDNLAPITAKAKVVIELLLSVSGVAKPSQVYFGGTVVGEQAMKSEDEVGSLIEYEFRVINLGKPLKNLGTATLNIQWPKEISNGKWLLYLMKVESKGLEQIVCEPHNEINYLKLKESHNSRKKRELPEKQIDDSRKFSLFPERKYQTLNCSVNVRCVNIRCPLRGLDSKASLVLRSRLWNSTFLEEYSKLNYLDILLRASIDVTAAAQNIKLPHAGTQVRVTVFPSKTVAQYSGVAWWIILLAVLAGILMLALLVFLLWKCGFFKRSRYDDSIPRYHAVRIRKEEREIKDEKHMDNLEKKQWITKWNENESYS |
| binds | guanosine diphosphate (GDP) dissociation inhibitor 2 (protein, UniProt Q61598 1-445) MNEEYDVIVLGTGLTECILSGIMSVNGKKVLHMDQNPYYGGESASITPLEDLYKRFKLPGQPPASMGRGRDWNVDLIPKFLMANGQLVKMLLFTEVTRYMDFKVIEGSFVYKGGKIYKVPSTEAEALASSLMGLFEKRRFRKFLVYVANFDEKDPRTFEGVDPKKTSMRDVYKKFDLGQDVIDFTGHSLALYRTDDYLDQPCCETINRIKLYSESLARYGKSPYLYPLYGLGELPQGFARLSAIYGGTYMLNKPIEEIIVQNGKVVGVKSEGEIARCKQLICDPSYVKDRVEKVGQVIRVICILSHPIKNTNDANSCQIIIPQNQVNRKSDIYVCMISFAHNVAAQGKYIAIVSTTVETKEPEKEIRPALELLEPIEQKFVSISDLFVPKDLGTDSQIFISRAYDATTHFETTCDDIKDIYKRMTGSEFDFEEMKRKKNDIYGED |
| binds | ectonucleotide pyrophosphatase/phosphodiesterase 1 (protein, UniProt P06802 1-906) MERDGDQAGHGPRHGSAGNGRELESPAAASLLAPMDLGEEPLEKAERARPAKDPNTYKVLSLVLSVCVLTTILGCIFGLKPSCAKEVKSCKGRCFERTFSNCRCDAACVSLGNCCLDFQETCVEPTHIWTCNKFRCGEKRLSRFVCSCADDCKTHNDCCINYSSVCQDKKSWVEETCESIDTPECPAEFESPPTLLFSLDGFRAEYLHTWGGLLPVISKLKNCGTYTKNMRPMYPTKTFPNHYSIVTGLYPESHGIIDNKMYDPKMNASFSLKSKEKFNPLWYKGQPIWVTANHQEVKSGTYFWPGSDVEIDGILPDIYKVYNGSVPFEERILAVLEWLQLPSHERPHFYTLYLEEPDSSGHSHGPVSSEVIKALQKVDRLVGMLMDGLKDLGLDKCLNLILISDHGMEQGSCKKYVYLNKYLGDVNNVKVVYGPAARLRPTDVPETYYSFNYEALAKNLSCREPNQHFRPYLKPFLPKRLHFAKSDRIEPLTFYLDPQWQLALNPSERKYCGSGFHGSDNLFSNMQALFIGYGPAFKHGAEVDSFENIEVYNLMCDLLGLIPAPNNGSHGSLNHLLKKPIYNPSHPKEEGFLSQCPIKSTSNDLGCTCDPWIVPIKDFEKQLNLTTEDVDDIYHMTVPYGRPRILLKQHHVCLLQQQQFLTGYSLDLLMPLWASYTFLRNDQFSRDDFSNCLYQDLRIPLSPVHKCSYYKSNSKLSYGFLTPPRLNRVSNHIYSEALLTSNIVPMYQSFQVIWHYLHDTLLQRYAHERNGINVVSGPVFDFDYDGRYDSLEILKQNSRVIRSQEILIPTHFFIVLTSCKQLSETPLECSALESSAYILPHRPDNIESCTHGKRESSWVEELLTLHRARVTDVELITGLSFYQDRQESVSELLRLKTHLPIFSQED |

No constants are given. Whether binding was seen depends on the method and setting. In cells and extracts the contact can be indirect. Here binding means that the protein was enriched with, or labelled near, the bait; the list need not be complete.
